Assay results taken from PubChem BioAssay (NCATS).
The list shows a part of the results. The main result of the screen is listed elsewhere. These columns were measured beside it and carry no call. Compounds called inactive in the main read-out are mostly missing here. Words in brackets tell the shape of the fitted curve; partial curves, single points and poor fits give uncertain potencies.

Assay: qHTS for identification of novel therapeutic agents for treatment of microphthalmiaassociated transcription factor (MiT) renal cell carcinoma (RCC) (AID 1963991)
Settings: CellTiter-Glo, 48 h; for z-score: stronger effect = lower value
Procedure, shortened: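 UOK109/UOK124/UOK145 (TFE3 fusions, three partners); 500 cells/well; MIPE v4.0, 1912 cpds, 11 conc.; 48 h, 37 C; CellTiter-Glo, 15 min RT; lum. Norm.: DMSO 100%, empty 0%.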

[1] = TFE3-RCC UOK109 viability, measured here: UOK109 Z-AUC
[2] = TFE3-RCC viability, measured here: UOK124 Z-AUC
[3] = TFE3-RCC viability, measured here: UOK145 Z-AUC
[4] = TFE3-RCC viability, measured here: UOK124 cell viability
[5] = TFE3-RCC viability, measured here: UOK145 cell viability

Row | SMILES | z-score [1] | z-score [2] | z-score [3] | AC50 [4] | AC50 [5]
1 | C=C[C@@H]1CN2CCC1C[C@@H]2C(O)c1ccnc2ccc(OC)cc12 (some centres undefined) | 0.0737 | 0.784 | 0.454 |  | 
2 | CC(=O)O[C@@]12CO[C@H]1C[C@H](O)[C@@]1(C)C(=O)[C@H](O)C3=C(C)[C@@H](OC(=O)C(O)[C@@H](NC(=O)OC(C)(C)C)c4ccccc4)C[C@@](O)([C@@H](OC(=O)c4ccccc4)[C@@H]21)C3(C)C (some centres undefined) | -2.49 | -0.587 | -1.64 |  | 
3 | O=C1NC(=O)C(=Cc2ccc3nccc(-c4ccncc4)c3c2)S1 |  |  |  | 0.59 µM [falling, full curve] | 0.372 µM [falling, full curve]
4 | O=C(CCN1CCN(C(=O)OCc2cc(Cl)cc(Cl)c2)CC1)c1ccc2[nH]c(=O)oc2c1 | 0.799 | 0.705 | 0.515 |  | 
5 | CN(C)CCC=C1c2ccccc2COc2ccc(CC(=O)O)cc21 | -0.25 | 0.129 | 0.197 |  | 
6 | O=C(C=Cc1ccc(CN(CCO)CCc2c[nH]c3ccccc23)cc1)NO |  |  |  | 0.332 µM [falling, full curve] | 1.05 µM [falling, full curve]
7 | CS(=O)(=O)N1CCc2c(-c3cnc(N)nc3)nc(N3CCOCC3)nc21 |  |  |  | 0.662 µM [falling, full curve] | 0.469 µM [falling, full curve]
8 | O=C(C[C@@H]1CC=CCCC(=O)O[C@H](c2ccccc2)CNC1=O)NCc1ccc(Cl)cc1 | -0.788 | 0.165 | 0.508 |  | 
9 | O=[N+]([O-])c1cn2c(n1)OC[C@@H](OCc1ccc(OC(F)(F)F)cc1)C2 | 0.905 | 0.282 | -2.56 |  | 
10 | COC(=O)[C@@H]1[C@H]2C[C@@H]3c4[nH]c5ccccc5c4CCN3C[C@@H]2CC[C@@H]1O | 0.553 | 0.924 | -0.683 |  | 
11 | CC[C@H]1OC(=O)[C@H](C)[C@@H](O[C@H]2C[C@@](C)(OC)[C@@H](O)[C@H](C)O2)[C@H](C)[C@@H](O[C@@H]2O[C@H](C)C[C@H](N(C)C)[C@@H]2O)[C@](C)(OC)C[C@@H](C)C(=O)[C@H](C)[C@@H](O)[C@]1(C)O | 0.421 | 0.4 | 0.838 |  | 
12 | CO[C@H]1/C=C\O[C@@]2(C)Oc3c(C)c(O)c4c(O)c(c(C=NN5CCN(C6CCCC6)CC5)c(O)c4c3C2=O)NC(=O)C(C)=CC=C[C@H](C)[C@H](O)[C@@H](C)[C@@H](O)[C@@H](C)[C@H](OC(C)=O)[C@H]1C |  |  |  | 0.0935 µM [falling, full curve] | 0.187 µM [falling, full curve]
13 | CN(C)c1nc(N(C)C)nc(N(C)C)n1 | -0.0767 | 0.0738 | -0.00551 |  | 
14 | C=CC1=C(C(=O)O)N2C(=O)[C@@H](NC(=O)C(=NO)c3csc(N)n3)[C@H]2SC1 | 1.29 | 0.643 | 0.406 |  | 
15 | O=C(O)c1ccc(O)c2ncc(N3CCOCC3)cc12 | 0.831 | 0.688 | 0.614 |  | 
16 | COc1ccc(CCC(=O)Nc2nc3ccc(Cl)cc3s2)cc1OC | 0.0691 | 0.308 | -0.0377 |  | 
17 | O=C(O)CCNc1cc(N2CCc3ccccc3CC2)nc(-c2ccccn2)n1 | 0.504 | 0.396 | 0.537 |  | 
18 | Cc1c(CCOc2ccc(C(=O)O)cc2)c2cc(Cl)ccc2n1C(c1ccccc1)c1ccccc1 | 0.41 | -0.0138 | 0.56 |  | 
19 | N#CC(=Cc1ccc(O)c(O)c1)C(=O)NCc1ccccc1 | 0.413 | 0.512 | 0.527 |  | 

Row | SMILES | z-score [1] | z-score [2] | z-score [3] | AC50 [4] | AC50 [5]
20 | O=C(O)CCCCCC(=O)NN=C1CCCC1 | -0.306 | 0.711 | 0.219 |  | 
21 | Nc1ncnc2ccccc12 | 0.41 | 0.553 | 0.149 |  | 
22 | C=C1[C@H](n2cnc3c(=O)[nH]c(N)nc32)C[C@H](O)[C@H]1CO | 0.94 | 2.29 | 0.945 |  | 23.5 µM [falling, partial curve]
23 | O=C(Nc1ccc(F)c(C(F)(F)F)c1)Nc1nnc(-c2ccncc2)s1 | 0.394 | 0.306 | 0.526 |  | 
24 | Cc1cn2cc(C(=O)N(C)CCO)cc(N[C@@H]3CCOc4cccc(C)c43)c2n1 | 1.64 | 0.311 | 0.543 |  | 
25 | Cc1csc(NC(=O)c2sc3nc4c(c(C(F)(F)F)c3c2N)CCC4)n1 | 0.233 | 0.388 | 0.133 | 18.7 µM [falling, partial curve] | 
26 | CCCCCCCCCC(=O)N[C@@H](Cc1c[nH]c2ccccc12)C(=O)N[C@H](CC(N)=O)C(=O)N[C@@H](CC(=O)O)C(=O)N[C@@H]1C(=O)NCC(=O)N[C@@H](CCCN)C(=O)N[C@@H](CC(=O)O)C(=O)N[C@H](C)C(=O)N[C@@H](CC(=O)O)C(=O)NCC(=O)N[C@H](CO)C(=O)N[C@@H]([C@@H](C)CC(=O)O)C(=O)N[C@@H](CC(=O)c2ccccc2N)C(=O)O[C@@H]1C | 0.505 | 0.955 | 0.571 |  | 
27 | Cc1c[nH]c(C=C2C(=O)Nc3ccccc32)c1CCC(=O)O | 0.789 | -0.412 | 0.52 | 20.9 µM [falling, single point] | 
28 | C#C[C@]1(O)CC[C@H]2[C@H]3CCc4cc(OC)ccc4[C@H]3CC[C@@]21C | 0.712 | 0.623 | 0.171 |  | 
29 | CCC(=O)O[C@]1(C(=O)CCl)[C@@H](C)C[C@H]2[C@@H]3CCC4=CC(=O)C=C[C@]4(C)[C@@]3(F)[C@@H](O)C[C@@]21C | 0.0208 | 0.534 | -3.01 |  | 
30 | CCOC(=O)[C@H](CCc1ccccc1)N[C@@H](C)C(=O)N1CCCC1C(=O)O (some centres undefined) | 0.436 | 0.447 | 0.448 |  | 
31 | COc1ccc(C2(C#N)CCC(C(=O)O)CC2)cc1OC1CCCC1 (centres undefined) | 0.41 | 0.748 | 0.646 |  | 
32 | CN(C(=O)c1ccc(F)cc1C(F)(F)F)C1CCN(c2nnc(-c3ccnn3C)c3ccccc23)CC1 | -0.739 | 0.234 | -0.248 |  | 
33 | O=C(O)CCC=CCC[C@@H]1[C@H](N2CCCCC2)[C@@H](O)C[C@@H]1OCc1ccc(-c2ccccc2)cc1 | 0.464 | 0.412 | 0.585 |  | 
34 | CC1CNc2c(cccc2S(=O)(=O)N[C@@H](CCCN=C(N)N)C(=O)N2CC[C@@H](C)C[C@@H]2C(=O)O)C1 (some centres undefined) | 0.0397 | 0.725 | 0.331 |  | 13.2 µM [falling, partial curve]
35 | Cc1cnc(-c2cc(N3CCN(C(=O)CCS(C)(=O)=O)CC3)ncc2Cl)c(C)c1 | -0.497 | 0.525 | -0.296 |  | 
36 | CC1(C)CCC(C)(C)c2cc(NC(=O)c3ccc(C(=O)O)cc3)ccc21 | -0.0509 | 0.803 | 0.0517 |  | 23.5 µM [falling, partial curve, poor fit]
37 | Cn1cc(-c2ccc3nnc(C(F)(F)c4ccc5ncccc5c4)n3n2)cn1 | 0.2 | 0.37 | 0.722 |  | 
38 | CC(C)Nc1cc(C(F)(F)F)cc2nc(NC(=O)c3cccnc3)nn12 | 0.185 | 0.0798 | 1.18 |  | 

Row | SMILES | z-score [1] | z-score [2] | z-score [3] | AC50 [4] | AC50 [5]
39 | CNC(=O)[C@H](Cc1ccccc1)NC(=O)[C@H](CC(C)C)[C@H](CSc1cccs1)C(=O)NO | -0.388 | 0.332 | 0.0202 |  | 
40 | CC(C)(Sc1cc(C(C)(C)C)c(O)c(C(C)(C)C)c1)Sc1cc(C(C)(C)C)c(O)c(C(C)(C)C)c1 | 0.491 | 0.369 | 0.363 |  | 
41 | CC1(C)O[C@@H]2C[C@H]3[C@@H]4CCC5=CC(=O)C=C[C@]5(C)[C@@H]4[C@@H](O)C[C@]3(C)[C@]2(C(=O)CO)O1 | 0.485 | 0.717 | 1.05 |  | 23.5 µM [falling, partial curve, poor fit]
42 | CCn1c(=O)c2c(nc(C=Cc3ccc(OC)c(OC)c3)n2C)n(CC)c1=O | 0.855 | 1.15 | 0.686 |  | 
43 | Cn1cc(C=C2C(=O)Nc3cccnc32)c2ccccc21 | 0.392 | -0.253 | 0.72 |  | 
44 | COc1ccc(-c2coc3cc(O)cc(O)c3c2=O)cc1 | 0.208 | 0.596 | 0.651 |  | 
45 | CCC(=O)O[C@]1(C(=O)SCF)[C@H](C)C[C@H]2[C@@H]3C[C@H](F)C4=CC(=O)C=C[C@]4(C)[C@@]3(F)[C@@H](O)C[C@@]21C | 0.073 | 0.748 | -0.224 |  | 37.2 µM [falling, single point]
46 | CC=CCC=CCCC(=O)[C@H]1O[C@@H]1C(N)=O | 0.716 | 0.641 | 0.513 | 29.6 µM [falling, single point] | 
47 | CNC(=O)[C@H](CC1=CN=C2C=CCC=C12)NC(=O)[C@@H](CC(=O)NO)CC(C)C | -1.79 | 1.12 | -0.249 |  | 4.18 µM [falling, partial curve, poor fit]
48 | COc1ccc(C=Cc2cc(OC)c(OC)c(OC)c2)cc1O | -1.61 | -3.85 | -2.7 |  | 
49 | CON=C(C(=O)N[C@@H]1C(=O)N2C(C(=O)O)=C(CSC(=O)c3ccco3)CS[C@H]12)c1csc(N)n1 | 1.28 | 0.808 | 1.52 |  | 37.2 µM [falling, single point]
50 | NC(=O)c1ccc(N(C(N)=O)c2c(F)cccc2F)nc1-c1ccc(F)cc1F | 0.488 | 1.91 | 1.15 |  | 
51 | Cc1coc2c1C(=O)C(=O)c1c-2ccc2c(C)cccc12 | 0.86 | 0.193 | -0.379 | 1.32 µM [falling, full curve, poor fit] | 
52 | CCC(=O)NCC[C@@H]1CCc2ccc3c(c21)CCO3 | 0.687 | 0.58 | 0.825 |  | 
53 | CN(C)CC[C@H](c1ccc(Cl)cc1)c1ccccn1 | 0.801 | 0.02 | -0.173 |  | 
54 | O=C1Nc2ccc(I)cc2C1=Cc1cc(Br)c(O)c(Br)c1 | -0.872 | 0.338 | 0.837 |  | 9.35 µM [falling, partial curve, poor fit]
55 | O=C1c2c(O)cc(O)cc2O[C@H](c2cc(O)c(O)c(O)c2)[C@H]1O | -3.3 | 0.876 | 1.25 |  | 
56 | CCc1cc(C(C)=NOCc2ccc(C3CCCCC3)c(C(F)(F)F)c2)ccc1CN1CC(C(=O)O)C1 | -0.588 | 0.405 | 0.869 |  | 
57 | CC(C)(C)[N+]([O-])=Cc1ccc(S(=O)(=O)O)cc1S(=O)(=O)O | 1.19 | 0.421 | 0.347 |  | 

Four compounds already listed, ordered by count of non-hydrogen atoms, low to high:
Row | SMILES | z-score [1] | z-score [2] | z-score [3] | AC50 [4] | AC50 [5]
55 | O=C1c2c(O)cc(O)cc2O[C@H](c2cc(O)c(O)c(O)c2)[C@H]1O | -3.3 | 0.876 | 1.25 |  | 
1 | C=C[C@@H]1CN2CCC1C[C@@H]2C(O)c1ccnc2ccc(OC)cc12 (some centres undefined) | 0.0737 | 0.784 | 0.454 |  | 
23 | O=C(Nc1ccc(F)c(C(F)(F)F)c1)Nc1nnc(-c2ccncc2)s1 | 0.394 | 0.306 | 0.526 |  | 
2 | CC(=O)O[C@@]12CO[C@H]1C[C@H](O)[C@@]1(C)C(=O)[C@H](O)C3=C(C)[C@@H](OC(=O)C(O)[C@@H](NC(=O)OC(C)(C)C)c4ccccc4)C[C@@](O)([C@@H](OC(=O)c4ccccc4)[C@@H]21)C3(C)C (some centres undefined) | -2.49 | -0.587 | -1.64 |  | 
